Data on one compound can be found in PubChem BioAssay AID493003 (Sanford-Burnham Center for Chemical Genomics, 2010).

In the assay the test system is S. cerevisiae tim10-1 mutant growth, luminescence. The assay is described as follows: growth inhibitors of tim10-1 mutant yeast, dose response, luminescence, S. cerevisiae, uHTS hits (AID 493003).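 Note: yeast growth measured after about 22 hours at 25 °C.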

By IC50 is commonly meant the concentration needed to halve the response being measured. For the compound `CN1CCN(CCCN2c3ccccc3Sc3ccc(Cl)cc32)CC1`, the IC50 is 29.1 µM.
